Some results were stated once for a whole list of compounds, not compound by compound.
Tested on: food intake
Assay: Food intake in non-deprived male Wistar rats (feeding boxes)
Format: in vivo, rat
Conditions: 3 hours after injection
Protocol: Food intake was measured in feeding boxes with standard chow and water placed on balances connected to a computer. Changes in weight of chow and water were continuously registered. Food and water intake were measured for 3 hours after drug injection during early daytime, when food intake is normally at a very low level.
The effect on feeding was tested after icy injections in non-deprived male Wistar rats. The compounds were dissolved in 5 μl saline and injected in the following doses: 10.0 μg per rat (NNC 26-1291) and 30.0 μg per rat (NN703 and NNC 26-1187).
Food intake was measured in feeding boxes, where standard chow and water were placed on balances and changes in weight continuously registered. Food and water intake was measured for 3 hours after drug injection in the beginning of the light part of the diurnal cycle, when food intake is normally at a very low level. […]
Non-deprived male Wistar rats (n=6-10) were used for the study, dosed with vehicle or with ghrelin at 10 μg/rat icy dissolved in 5 μl saline. Food intake was measured in conscious animals, using feeding boxes. Food and water intake were measured for 3 hours after drug injection during early daytime, when food intake is normally at a very low level. GH release was measured in Halothane-anaesthetized animals from which blood samples were obtained, before dosing and 10 min after dosing, via the orbital plexus. […]

Structure (SMILES)	Food intake (30.0 μg per rat icy)	Food intake (10.0 μg per rat icy)
CN(CCc1ccccn1)C(=O)[C@@H](Cc1ccccc1)N(C)C(=O)[C@@H](Cc1ccc2ccccc2c1)N(C)C(=O)/C=C/CC(C)(C)N [NNC 26-1187]	4-5 grams	
CN(C)N(C)C(=O)C1(Cc2ccccc2)CCCN(C(=O)[C@@H](Cc2c[nH]c3ccccc23)NC(=O)C(C)(C)N)C1 (some centres unmarked) [NNC 26-1291]		4-5 grams

From patent publication US7994329B2, “Growth hormone secretagogue receptor type 1A agonists” (Helsinn Therapeutics (U.S.), Inc., priority 2000, dated 2011)
